The text below walks through data of patent US20070212733A1.

Chains of the proteins cited; added tags and fusions are not shown. Residues count along the entry.
UniProt Q9WU72, residues 127-309: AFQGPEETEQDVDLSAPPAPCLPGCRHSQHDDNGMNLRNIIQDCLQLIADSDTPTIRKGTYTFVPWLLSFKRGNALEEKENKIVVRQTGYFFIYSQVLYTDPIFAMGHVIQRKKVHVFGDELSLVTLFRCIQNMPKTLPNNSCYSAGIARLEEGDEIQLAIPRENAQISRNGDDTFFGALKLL
UniProt Q02223, residues 5-51: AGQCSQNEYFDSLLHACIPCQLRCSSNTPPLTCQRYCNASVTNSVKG

No constants are given. Whether binding was seen depends on the method and setting. Some results given as binding are weak or reduced against the parent protein; the word gives no strength.

The assay addresses mouse BAFF (Genentech, Inc.) (mouse) (UniProt Q9WU72). Put plainly: sandwich ELISA; human BCMA-Fc coated at 0.5 ug/mL captures mouse BAFF (serum samples and standard curve). (ELISA stands for enzyme-linked immunosorbent assay.)

“human BCMA-Fc (Genentech, Inc.) (from UniProt Q02223 5-51) (Fc fusion)”: the binding entry is recorded as “binds”.
